Reference: publication PMC10340229, “EpoR Activation Stimulates Erythroid Precursor Proliferation by Inducing Phosphorylation of Tyrosine-88 of the CDK-Inhibitor p27^Kip1” (Cells, 2023)
No constants are given. Whether binding was seen depends on the method and setting. For part of these data: In cells and extracts the contact can be indirect. Some binding calls cover weakened binding; strength is not graded here. Where a sequence is shown, tags or fusion partners need not be part of it.

Amino acid sequences for entries named in this document (tags omitted). A change or cut given only in a name is not applied to a line headed by its entry.
UniProt P46527: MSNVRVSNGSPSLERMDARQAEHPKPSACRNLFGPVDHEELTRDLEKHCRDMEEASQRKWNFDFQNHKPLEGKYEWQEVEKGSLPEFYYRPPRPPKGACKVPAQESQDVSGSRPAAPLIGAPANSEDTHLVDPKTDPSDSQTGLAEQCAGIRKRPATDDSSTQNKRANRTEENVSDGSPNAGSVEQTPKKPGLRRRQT

Assays:
[1] = target: T1, GST–hIC EpoR (273–508aa), cytoplasmic domain of human EpoR (human) (UniProt P19235); experiment: pull-down; GST fusion proteins bound on glutathione Sepharose beads incubated for 2 h at 4 °C with purified bacterial p27, p27 mutants or p27 fragments; extensive washing; bound p27 detected by Western blot; both purified
T1 sequence: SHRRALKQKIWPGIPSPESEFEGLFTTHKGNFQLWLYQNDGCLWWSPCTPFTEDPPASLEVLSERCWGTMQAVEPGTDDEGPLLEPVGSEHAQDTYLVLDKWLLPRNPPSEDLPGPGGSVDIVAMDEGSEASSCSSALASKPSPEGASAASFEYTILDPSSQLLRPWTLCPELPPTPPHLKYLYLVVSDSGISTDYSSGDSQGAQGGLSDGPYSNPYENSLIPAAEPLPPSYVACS

[2] = target: T1, GST–hIC EpoR (273–508aa), cytoplasmic domain of human EpoR (human); experiment: pull-down; unpublished data: 'under these conditions' (bacterial recombinant proteins), Y88–phosphorylated p27 with EpoR; both purified
[3] = target: Flag–tagged p27 (p27^Kip1, CDKN1B) (human) (UniProt P46527); experiment: co-IP; HEK–293T cells co-transfected with Flag–p27, HA–EpoR and/or untagged Jak2 for 48 h; lysis in 50 mM HEPES pH 7.5, 150 mM NaCl, 1% Triton; anti–Flag M2 Affinity Gel 90 min at 4 °C in 0.5% Triton; Western blot

## His–tagged p27 C–terminus (amino acids 97–198) (from UniProt P46527 97-198) (domain or fragment)
[1]
  binding: no binding

## Y88–phosphorylated p27 (from UniProt P46527 1-198)
[2]
  binding: binds

B1: HA–tagged EpoR (erythropoietin receptor) (receptor, UniProt P19235 25-508)
chain: APPPNLPDPKFESKAALLAARGPEELLCFTERLEDLVCFWEEAASAGVGPGNYSFSYQLEDEPWKLCRLHQAPTARGAVRFWCSLPTADTSSFVPLELRVTAASGAPRYHRVIHINEVVLLDAPVGLVARLADESGHVVLRWLPPPETPMTSHIRYEVDVSAGNGAGSVQRVEILEGRTECVLSNLRGRTRYTFAVRARMAEPSFGGFWSAWSEPVSLLTPSDLDPLILTLSLILVVILVLLTVLALLSHRRALKQKIWPGIPSPESEFEGLFTTHKGNFQLWLYQNDGCLWWSPCTPFTEDPPASLEVLSERCWGTMQAVEPGTDDEGPLLEPVGSEHAQDTYLVLDKWLLPRNPPSEDLPGPGGSVDIVAMDEGSEASSCSSALASKPSPEGASAASFEYTILDPSSQLLRPWTLCPELPPTPPHLKYLYLVVSDSGISTDYSSGDSQGAQGGLSDGPYSNPYENSLIPAAEPLPPSYVACS
[3]
  binding: binds
